# Laboratory results reported in PMC7821693, “Revealing biophysical properties of KfrA-type proteins as a novel class of cytoskeletal, coiled-coil plasmid-encoded proteins”.
# Weaker means in comparison with the reference protein, sequence or condition of that experiment. Tags and fusion partners may be left off the protein sequences shown.
# Assays:
# [1] = target: T1, KfrA RA3 (His6-KfrARA3) (IncU plasmid RA3) (UniProt Q209P3); assay: competition with a labelled probe; conditions: vs labeled OKRA3, slightly decreased binding; EMSA: 50 mM Tris-HCl pH 8.0, 10 mM MgCl2, 50 mM NaCl, 10 pmol DNA, 30 min at 37 C (legend: 25 C), 2.5% agarose in 0.5x TBE; recombinant protein; residues 1-355
# T1 sequence (looked up): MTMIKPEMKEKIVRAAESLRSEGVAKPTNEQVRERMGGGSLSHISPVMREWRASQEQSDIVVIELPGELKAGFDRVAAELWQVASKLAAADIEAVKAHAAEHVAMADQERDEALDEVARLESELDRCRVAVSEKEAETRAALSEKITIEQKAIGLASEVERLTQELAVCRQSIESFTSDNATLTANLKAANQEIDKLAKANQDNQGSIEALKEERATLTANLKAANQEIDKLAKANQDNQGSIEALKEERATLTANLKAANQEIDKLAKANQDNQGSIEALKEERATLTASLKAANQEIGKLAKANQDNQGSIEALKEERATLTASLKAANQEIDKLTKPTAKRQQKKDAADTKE
# [2] = target: T2, KfrA R751 (His6-KfrAR751) (IncP-1beta plasmid R751) (UniProt P71173); assay: competition with a labelled probe; conditions: vs labeled OKR751, slightly decreased binding; EMSA: 50 mM Tris-HCl pH 8.0, 10 mM MgCl2, 50 mM NaCl, 10 pmol DNA, 30 min at 37 C (legend: 25 C), 2.5% agarose in 0.5x TBE; recombinant protein; residues 1-342
# T2 sequence (looked up): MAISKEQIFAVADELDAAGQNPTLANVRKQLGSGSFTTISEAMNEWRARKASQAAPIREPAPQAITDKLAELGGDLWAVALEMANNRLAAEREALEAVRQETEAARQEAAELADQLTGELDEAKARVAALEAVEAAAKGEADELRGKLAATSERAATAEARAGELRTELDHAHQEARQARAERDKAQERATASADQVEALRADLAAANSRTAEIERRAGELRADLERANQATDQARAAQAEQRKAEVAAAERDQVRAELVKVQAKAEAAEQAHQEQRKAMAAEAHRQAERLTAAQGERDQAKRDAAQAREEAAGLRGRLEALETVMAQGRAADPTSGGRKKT
sequence,measurement,setting,value
"AATTCGTTGTATTGTATGTATTGTATGTATTGTATTATAAG / TCGACTTATAATACAATACATACAATACATACAATACAACG [OG1/OD1 (#5/#6), used as nonspecific DNA]",binding result,[1],binds more weakly
same,binding result,[2],binds more weakly
